According to patent US20250089559A1, “LIGHT-EMITTING DEVICE” (SEMICONDUCTOR ENERGY LABORATORY CO., LTD., priority 2022, published 2025):

Experiment: acid dissociation constant pKa of basic skeletons / organic compounds

C1CN=C2NCCCN2C1 [TBD]
pKa: ≥ 14 | acid dissociation constant pKa (measured by adopting water as a solvent): 14.5
